# Values from PubChem BioAssay AID602196 (INSERM, 2012)
# Screen: 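Modifiers of cisplatin sensitivity in A549 cells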
# Cell system: human A549 lung cancer cells
# Reagents: siRNA pair against human genes
# Duration: 48 h transfection before cisplatin; time from cisplatin to read-out not stated
# Treatment: cisplatin at a dose killing half of control-siRNA cells; exact dose and duration not given
# Read-out: 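Shift in cisplatin death relative to control siRNA, from -50 (all cells die) to +50 (no cells die); siRNAs harmful on their own scored 0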
# Reading the numbers: two-siRNA summed score (-2 to +2): higher = both siRNAs protect from cisplatin killing; -2 means both sensitise; mean protection from cisplatin (shift in death) and protection from cisplatin (shift in death), siRNA C and protection from cisplatin (shift in death), siRNA D: higher = protection from cisplatin killing
# Hit rule: 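siRNAs harmful alone (LDH or WST-1) get 0; others get +1 for less and -1 for more cisplatin killing; genes are active when the two siRNAs give the same sign, summing to ±2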
# Meaning of the calls: active = both siRNAs shift cisplatin killing the same way; inactive = no consistent shift, or siRNA harmful alone
# Here is an unselected part of about 23,000 reagents tested. 455 of them (2%) were called active. 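Active includes both protection and sensitisation; some change values fall well beyond the stated -50 to +50 range.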 No sequences are given here. Not stated in the record: the amount of reagent.
gene,PubChem SID,two-siRNA summed score (-2 to +2),mean protection from cisplatin (shift in death) (%),"protection from cisplatin (shift in death), siRNA C (%)","protection from cisplatin (shift in death), siRNA D (%)",Call
RBSN,SID131504010,0,-6.8,-11.3,-2.4,inactive
LOC342600,SID131516535,0,11,9.5,12.6,inactive
LOC401121,SID131506638,0,-1.2,0.6,-3,inactive
KCNIP1,SID131500692,-1,-17.6,-9.9,-25.3,inactive
LOC442140,SID131510952,0,3.8,8.7,-1.1,inactive
SETD4,SID131516119,0,10.3,11.3,9.3,inactive
TLL1,SID131514291,0,7.6,7.2,8,inactive
PHIP,SID131517722,0,14.5,24.1,4.9,inactive
OR5M3,SID131515185,0,8.8,5.3,12.3,inactive
LOC440932,SID131511792,0,4.7,9.5,0,inactive
LOC401151,SID131509425,0,2.1,4.3,-0.1,inactive
ACVRL1,SID131517996,0,15.8,16.6,15.1,inactive
DUS1L,SID131503845,0,-7.5,-4.1,-10.9,inactive
PAPOLA,SID131516619,0,11.2,27.8,-5.4,inactive
GJA3,SID131502916,0,-18.6,-5.2,-32.1,inactive
WDR35,SID131519576,1,6.4,19,-6.2,inactive
LOC388327,SID131512129,0,5.1,0,10.3,inactive
C4orf33,SID131513105,0,6.2,6.7,5.8,inactive
TM2D2,SID131516899,0,11.9,19.2,4.6,inactive
MAGEA3,SID131504527,0,-5.2,-2.8,-7.5,inactive
PTPRH,SID131504113,0,-6.5,11,-23.9,inactive
TIPIN,SID131515361,0,9.1,-2.5,20.6,inactive
DEFB125,SID131520299,1,9.4,11.1,7.8,inactive

Ordered by “mean protection from cisplatin (shift in death) (%)” (low to high): 2 of the entries above
gene,PubChem SID,two-siRNA summed score (-2 to +2),mean protection from cisplatin (shift in death) (%),"protection from cisplatin (shift in death), siRNA C (%)","protection from cisplatin (shift in death), siRNA D (%)",Call
TLL1,SID131514291,0,7.6,7.2,8,inactive
PHIP,SID131517722,0,14.5,24.1,4.9,inactive
